Laboratory results published in paper PMC3268111.
No constants are given. Whether binding was seen depends on the method and setting.

Sequences of proteins named here, by UniProt entry; tags and fusion partners are left off. Residues count along the entry.
UniProt P02545, residues 66-320: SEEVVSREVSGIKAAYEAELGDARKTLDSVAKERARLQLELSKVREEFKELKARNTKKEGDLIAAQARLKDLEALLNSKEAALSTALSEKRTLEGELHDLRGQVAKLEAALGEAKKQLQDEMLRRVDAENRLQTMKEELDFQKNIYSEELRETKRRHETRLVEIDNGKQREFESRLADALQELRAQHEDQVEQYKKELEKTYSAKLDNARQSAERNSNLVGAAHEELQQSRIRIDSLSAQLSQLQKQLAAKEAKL

Target: human lamin C (66-320) (pLAM5') (human) (UniProt P02545)
Test: two-hybrid; MatchMaker system, S. cerevisiae HF7c co-transformed with prey (pGAD) and bait (pGBT9 or pLAM5') plasmids; β-galactosidase activity

B1: MEK2(275-400), C-terminal 126 residues of MEK2 (pGAD-MEK2(275-400)) (domain or fragment, UniProt P36507 275-400)
chain: LEAIFGRPVVDGEEGEPHSISPRPRPPGRPVSGHGMDSRPAMAIFELLDYIVNEPPPKLPNGVFTPDFQEFVNKCLIKNPAERADLKMLTNHTFIKRSEVEEVDFAGWLCKTLRLNQPGTPTRTAV
  binding: no binding
